# About 18,000 (4.4%) of roughly 410,000 compounds were called active. Inconclusive means that the source gave no clear call. Such entries were picked first, then a sample of the others. Cut-off read from the data, not from the text of the source: active = activity change below about -60%; inconclusive = no clear call, values can overlap the other calls; inactive = above about -39%.
# Test: qHTS Assay for inhibitors of the human cytomegalovirus (HCMV)
# Conditions: HFF cells, HCMV-luciferase reporter, 72 h; at 57.5 µM; active compounds read low
# In short: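 Inhibition of viral replication was scored as loss of reporter luminescence in HFFs infected with HCMV-luciferase (MOI 1 PFU/cell) for 72 h; compounds tested at 2 doses, normalized to buffer and Salinomycin controls.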
# % is set by controls: 0 for no effect and ±100 for the full control effect.
row,SMILES,"activity change, negative = inhibition"
1,Cc1cc(NC(=O)CSc2nc(N)c(NC(=O)c3ccccc3)c(=O)[nH]2)no1,inconclusive: -44.4%
2,O=C1NC(=O)C2(Cc3cc([N+](=O)[O-])ccc3N3CCN(C(=O)c4ccccc4)CC32)C(=O)N1 (configuration not stated),inconclusive: -52.2%
3,COc1ccc(OC)c(CCNC(=O)c2ccccc2NC(=O)C2=C(C)OCCS2)c1,inconclusive: -46.6%
4,COc1ccc(-n2nc3c(c2NC(=O)c2ccc(S(=O)(=O)N4CCOCC4)cc2)CS(=O)C3)cc1 (configuration not stated),inconclusive: -41.9%
5,CCOc1cc(C#N)c(NC(=O)c2cccnc2)cc1OCC,inconclusive: -52.3%
6,Cc1ccc(-c2nc3c(c(=O)[nH]c(=O)n3Cc3ccccc3)n2Cc2ccccc2)o1,inconclusive: -41.2%
7,COc1cc(-c2nc3cc(C)ccn3c2NC2CCCCC2)ccc1-c1ccc(C(C)=O)cc1,active: -94.4%
8,O=C(N/N=C/c1ccccc1Cl)c1nc2ccc([N+](=O)[O-])cc2c(=O)[nH]1,inconclusive: -42.2%
9,O=C(CSc1cccc2cccnc12)N/N=C/c1cccnc1,active: -101%
10,Cc1ccc(S(=O)(=O)NC(=O)c2ccc(-c3ccc(C)c4ccccc34)o2)cc1,inactive: -7.83%
11,COc1ccc(NC(=O)c2cccc(S(=O)(=O)Nc3ccc(Br)cc3)c2)cn1,active: -90.4%
12,CCC(=O)N/N=C(\C)CC(=O)Nc1cc(Cl)ccc1C,inconclusive: -43%
13,O=C(COc1ccccc1F)N1CCN(S(=O)(=O)/C=C/c2ccccc2)CC1,inconclusive: -46.2%
14,COc1ccc(CNC(=O)Nc2ccc(OC)cc2)cc1,inactive: 17.8%
15,O=C1NC(Cc2ccc(O)cc2)c2nc3cc(Cl)ccc3c(=O)n2-c2cc3ccccc3cc21 (configuration not stated),active: -99.9%
16,c1ccc2sc(SNC3CCCCC3)nc2c1,inactive: 15%
17,CCOc1ccc(/C=C/c2nc(C#N)c(NC3CCCCC3)o2)cc1,inconclusive: -46.7%
18,COc1cc(CCC(=O)Nc2ccc(S(=O)(=O)N3CCOCC3)cc2)cc(OC)c1OC,inconclusive: 0%
19,C=CCn1c(NCCO)nc2sc3c(c2c1=O)CCC3,inconclusive: -58.8%
20,O=C(NCc1ccncc1)c1csc([C@@H]2C[C@H](O)[C@@H](CO)O2)n1,inconclusive: -48.3%
21,Cc1cc(C)c2oc(=O)cc(CN3CCCCC3)c2c1,inactive: -18.8%
22,Cc1cc(C)n2c(Nc3c(C)cccc3C)c(-c3ccccn3)nc2n1,active: -69.2%

# For convenience, 3 of the compounds above.
row,SMILES,"activity change, negative = inhibition"
7,COc1cc(-c2nc3cc(C)ccn3c2NC2CCCCC2)ccc1-c1ccc(C(C)=O)cc1,active: -94.4%
8,O=C(N/N=C/c1ccccc1Cl)c1nc2ccc([N+](=O)[O-])cc2c(=O)[nH]1,inconclusive: -42.2%
9,O=C(CSc1cccc2cccnc12)N/N=C/c1cccnc1,active: -101%

# The listing continues.

row,SMILES,"activity change, negative = inhibition"
1,Cc1ccc(-n2ncc(C(=O)N3CCN(Cc4ccccc4)CC3)c2C2CCN(C(=O)OC(C)(C)C)CC2)cc1,inconclusive: 0%
2,CC(C)(C)OC(=O)N1CCC(C(=O)N2CCC[C@H]2C(=O)O)CC1,inactive: 62.1%
3,Cc1ccc(C(=O)Nc2ccc(Oc3cccc(C(F)(F)F)c3)nc2)cc1,inconclusive: -47.3%
4,NS(=O)(=O)c1ccc(CNC(=O)COc2ccc3c4c(c(=O)oc3c2)CCCC4)cc1,inconclusive: -40.2%
5,COc1ccc(N(CC(=O)NCCSCc2ccccc2C)S(=O)(=O)c2ccccc2)cc1,inconclusive: -52.4%
6,O=C(c1ccc(OC2CCN(C(=O)c3cccnc3)CC2)cc1)N1CCCCCC1,inconclusive: -50.9%
7,CCOC(=O)c1c(NC(=O)C2CCCCC2)sc2c1CCN(C(C)C)C2,inactive: 8.03%
8,O=[N+]([O-])c1cc2ccccc2nc1-c1ccccc1,inconclusive: -44.5%
9,CSC(=NC#N)N1CCN(c2ccccc2)CC1,inconclusive: -46.4%
10,CC1CC(C)CN(c2oc(Cc3ccccc3)nc2C#N)C1 (configuration not stated),inconclusive: -41.5%
11,Cc1nnc(SCC(=O)N(C)c2ccccc2)n1Cc1ccccc1,inconclusive: -40.9%
12,COC(=O)C(O)(c1ccc(NC(=O)c2ccccc2)cc1)C(F)(F)F (configuration not stated),inactive: 7.59%
13,Cc1cccc(-c2nnc(SCC(=O)N3CCCc4ccccc43)o2)c1,inactive: -13.3%
14,CC(=O)c1ccc(C(=O)N(Cc2cccnc2)c2nc3c(Cl)cccc3s2)cc1,inactive: 0%
15,O=c1c2c([nH]n1-c1ccccc1)CCSC2,inconclusive: -45.5%
16,O=C(/C=C/c1ccco1)Oc1cccc2cccnc12,active: -72.2%
17,O=C(O)CC(NS(=O)(=O)c1ccc(Br)s1)c1ccccc1 (configuration not stated),inactive: 11.8%
18,COc1ccc(CN2CCN(S(=O)(=O)c3ccc(NC(C)=O)cc3)CC2)cc1OC,inconclusive: -40.8%
19,COc1ccc(CNc2ncc(-c3cccc([N+](=O)[O-])c3)n2C)c(OC)c1OC,inactive: 0.533%
20,CSC1=C(C#N)C(c2ccc3c(c2)OCO3)C2=C(CCCC2=O)N1 (configuration not stated),inconclusive: -55.8%
21,O=C(NCCCN1CCN(c2ccccc2)CC1)c1nnc(Cc2ccc(F)cc2)o1,inactive: -11.4%
22,Cc1cc(C(=O)NC2CCCc3ccccc32)no1 (configuration not stated),inactive: -23.4%

row,SMILES,"activity change, negative = inhibition"
1,COn1c(SCc2ccccc2)nc2ccccc2c1=O,inconclusive: -54.6%
2,COc1cccc(N2CCN(c3c(C#N)c(C(F)(F)F)nn3C)CC2)c1,active: -94.3%
3,COc1ccc(S(=O)(=O)Oc2ccc3c(c2)O/C(=C\c2cccnc2)C3=O)cc1,active: -110%
4,Cc1cc(C(=O)CSc2nc3ccccc3c(=O)[nH]2)c(C)n1CC1CCCO1 (configuration not stated),inconclusive: -51.3%
5,Cc1cc(C)nc(NC(=O)c2ccccc2O)n1,inactive: 126%
6,CCc1nnc(NC(=O)C2Cc3ccccc3CN2S(=O)(=O)CC)s1 (configuration not stated),inconclusive: -47.1%
7,COc1ccc(C)cc1NC(=O)CN1CCN(S(=O)(=O)c2ccc(Cl)cc2)CC1,inconclusive: -44.6%
8,CCCCNC(=O)CC1N=C2c3ccccc3N=C(SCC(=O)Nc3cccc(C)c3)N2C1=O (configuration not stated),inconclusive: -48.4%
9,CC(C)c1cc(C(=O)Nc2cccnc2)no1,inactive: 98.5%
10,CCc1ccc(/C=N/NC(=O)c2cc(-c3ccncc3)nc3ccccc23)s1,active: -66.1%
11,CN(C)Cc1c(C(=O)N/N=C/c2ccc(-c3ccccc3)cc2)nnn1-c1nonc1N,inconclusive: -41.9%
12,COc1ccc(Cn2c(=O)[nH]c3cc(C(=O)N4CCN(c5ccccc5)CC4)ccc3c2=O)cc1,inactive: 16.3%
13,CN(C)CC/C=C1\c2cc(Cl)ccc2Sc2cc(F)c(F)cc21,inconclusive: -59.3%
14,COC(=O)C1=C(C)N=C2SCCC(=O)N2C1c1cc(Br)ccc1OC (configuration not stated),inconclusive: -47.8%
15,O=C(CCc1nc2ccccc2c(=O)[nH]1)OCCOc1ccc(Cl)cc1,inactive: 7.17%
16,CCCOc1ccc(Nc2cc(C)nc(C)n2)cc1,inactive: 34.3%
17,Cc1oc(-c2cccc(Br)c2)nc1Cn1c(=O)cc(-c2ccccc2)c2c(C)nn(C)c21,inconclusive: -40.1%
18,COc1ccc2c(c1)c1c(c(=O)n(Cc3ccccc3)c(=O)n1CC(=O)Nc1c(C)cccc1C)n2C,inactive: -2.29%
19,Cc1ccc(S(=O)(=O)NCCc2sc3nc(-c4ccccc4)nn3c2C)cc1C,inconclusive: -54%
20,COc1ccc(-c2nc(N3CCCCCC3)sc2C(=O)c2ccccc2)cc1,inconclusive: -43.7%
21,COC(=O)CN(c1nc(C)c(Cl)c(OC)n1)S(=O)(=O)c1ccc(C)cc1,inconclusive: -56.7%
22,CCc1nc2onc(C)c2c(=O)n1CC(=O)O,inactive: 9.29%

row,SMILES,"activity change, negative = inhibition"
1,COc1ccc2c(c1)CCC/C2=N/OC(=O)c1ccccc1OC,inconclusive: -44.3%
2,CCCc1c(C)[nH]c2ccc(C(=O)O)cc2c1=S,inactive: 29.4%
3,COc1cccc(NC(=O)COC(=O)c2ccccc2C(=O)N2CCN(c3ccccc3)CC2)c1,inconclusive: -58.5%
4,O=C(OCc1cccc([N+](=O)[O-])c1)c1ccncc1,inconclusive: -48%
5,CN1CCN(C2=Nc3cc(Cl)ccc3Nc3ccccc32)CC1,inconclusive: -40.6%
6,CCOc1ccc(NC(=O)c2ccc(F)c(S(=O)(=O)N3CCCC3)c2)cc1,inconclusive: -54.4%
7,Cc1ccc(-n2cc(C(=O)O)c(=O)cc2C)c(C)c1,inconclusive: -51.8%
8,CCCNC(=O)c1c(NC(=O)C2COc3ccccc3O2)sc2c1CCCC2 (configuration not stated),inconclusive: -43.1%
9,Cc1c(C(=O)OCC(C)C)[nH]c2c1C(=O)CC(c1ccco1)C2 (configuration not stated),active: -76.7%
10,O=C1C(=O)N(C2CCCC2)C(=O)N1Cc1c(F)cccc1Cl,inactive: -7.08%
11,COc1ccc(-n2cc(CNCCCn3ccnc3)c(-c3cccc(F)c3)n2)cc1,inconclusive: -52.6%
12,COc1ccc(CCC(=O)Nc2ccc(S(=O)(=O)NC3=NCCCCC3)cc2)cc1,inactive: 21.6%
13,O=C(NN=Cc1c(O)ccc2ccccc12)c1ccc2c(c1)OCO2,active: -102%
14,O=C(COC(=O)c1ccc(O)cc1O)Nc1cc(-c2ccccc2)nn1-c1ccccc1,inconclusive: -41.8%
15,O=C(Nc1ccc(Cl)cc1)N[C@@H]1c2c(ccc3ccccc23)OC[C@@H]1CO,inconclusive: -42%
16,CN(C)c1ccc(S(=O)(=O)N2CCCCC2)cc1NC(=O)CN1C(=O)NC2(CCCC2)C1=O,inactive: 2.21%
17,O=C(Cn1[nH]c(=O)c2ccccc2c1=O)NNC(=O)c1ccccc1,inconclusive: -41%
18,Cc1nc(N2CCN(Cc3ccccc3)CC2)nc2c1C(=O)CCC2,active: -97%
19,O=C(Cc1ccccc1)N/N=C/c1cccc([N+](=O)[O-])c1,inconclusive: -51%
20,Cc1nn(C)c2ncc(C(=O)c3ccccc3O)cc12,inactive: -29.9%
21,CCCCN(C)CC(O)Cn1cc(/C=C/C(=O)c2ccc(OC)c(OC)c2)c2ccccc21 (configuration not stated),active: -108%

# An excerpt from above in order of molar mass, falling.
row,SMILES,"activity change, negative = inhibition"
3,COc1cccc(NC(=O)COC(=O)c2ccccc2C(=O)N2CCN(c3ccccc3)CC2)c1,inconclusive: -58.5%
11,COc1ccc(-n2cc(CNCCCn3ccnc3)c(-c3cccc(F)c3)n2)cc1,inconclusive: -52.6%
13,O=C(NN=Cc1c(O)ccc2ccccc12)c1ccc2c(c1)OCO2,active: -102%

# — PubChem BioAssay AID1259415 (National Center for Advancing Translational Sciences (NCATS), 2018)
